From patent US10357438B2, “Metal salt compositions” (Colgate-Palmolive Company, priority 2014, dated 2019)

experiment: Uptake of zinc in Vitro-skin; conditions: 0.39% w/w Zn solutions; saliva-soaked Vitro-skin, 2 minutes at 37° C.; AA zinc analysis

Row | Compound | Zn uptake to Vitro-skin
1 | [Cl-].[Cl-].[Zn+2] [Zinc Chloride] | 41.9 μg/cm^2
2 | O=C([O-])CC(O)(CC(=O)[O-])C(=O)[O-].O=C([O-])CC(O)(CC(=O)[O-])C(=O)[O-].[Zn+2].[Zn+2].[Zn+2] [Zinc Citrate (prepared), Zinc Citrate] | 49.6 μg/cm^2
3 | O=C([O-])CC(O)(CC(=O)[O-])C(=O)[O-].O=C([O-])CC(O)(CC(=O)[O-])C(=O)[O-].[Zn+2].[Zn+2].[Zn+2] [Zinc Citrate (commercial), Zinc Citrate] | 38.1 μg/cm^2
